Patent publication US20120258937A1, “Targeting Estrogen Receptors in the Treatment of Lymphangioleiomyomatosis” (Fox Chase Cancer Center, priority 2011, published 2012)
At least one compound was matched to its structure with a doubt left.

Key:
[1] = test system: ELT3 cells; assay: ELT3 xenograft tumor growth, lung metastasis and survival in SCID mice; assay type: in vivo; conditions: drug plus estradiol; Kaplan-Meier
Experimental: Animal studies. All animal work was performed in accordance with protocols approved by the Institutional Animal Care and Use Committee at the Brigham and Women's Hospital. Female ovariectomized and male CB17-SCID mice, six to eight weeks of age, were purchased from Taconic (Hudson, N.Y.). One week prior to ELT3 cell injection, 17-beta estradiol or placebo pellets (2.5 mg, 90-day release, Innovative Research America, Sarasota, Fla.) were implanted. For xenograft tumor establishment, 2×10^6 ELT3 cells were bilaterally injected into the rear flanks of the mice. Lung metastases were scored from five-micron H & E stained sections of each lobe by observers blinded to the experimental conditions. […]
Statistical analyses. Statistical analyses were performed using Student's t-test when comparing two groups. Results are presented as means+SD (Standard Deviation) of experiments performed in triplicate. Differences were considered significant at p<0.05.

[2] = test system: ELT3 xenograft tumors; assay: Analysis of ELT3 xenograft tumors (H&E, immunohistochemistry, TUNEL, immunoblot, real-time RT-PCR); assay type: in vivo, mice
Experimental: Animal studies. All animal work was performed in accordance with protocols approved by the Institutional Animal Care and Use Committee at the Brigham and Women's Hospital. Female ovariectomized and male CB17-SCID mice, six to eight weeks of age, were purchased from Taconic (Hudson, N.Y.). One week prior to ELT3 cell injection, 17-beta estradiol or placebo pellets (2.5 mg, 90-day release, Innovative Research America, Sarasota, Fla.) were implanted. For xenograft tumor establishment, 2×10^6 ELT3 cells were bilaterally injected into the rear flanks of the mice. Lung metastases were scored from five-micron H & E stained sections of each lobe by observers blinded to the experimental conditions. Fulvestrant (1 mg/day, intramuscular injection) or Doxycycline (0.7 mg/day, 60-day release, Innovative Research America) treatments were initiated one day post-cell inoculation.
Immunoblotting and antibodies. Cells were rinsed once in ice-cold PBS and lysed in m-PER buffer (50 mM HEPES, pH 7.5, 50 mM NaCl, 5 mM EDTA, 50 mM NaF, 10 mM Na4P2O7, and 1% Triton, Pierce). Lysates were resolved by SDS-PAGE electrophoresis and transferred onto Immobilon P membranes (Millipore, Bedford, Mass.). The following antibodies were used for Western blot analysis: anti-MMP2 (Chemicon), anti-phospho-p42/44 MAPK (T202/Y204), anti-p42/44MAPK, anti-Collagen Type IV (Abnova), anti-Ki67 (BioGenex, San Ramon, Calif.), anti-beta-actin (Sigma), and anti-ERα (Santa Cruz, Calif.). Western blots were developed using horseradish peroxidase-conjugated secondary antibodies and ECL chemiluminescence (Amersham Biosciences, Piscataway, N.J.).
Immunohistochemistry. Sections were deparaffinized, incubated overnight with primary antibodies at 4° C. in a humidified chamber and then rinsed and incubated with biotinylated secondary antibodies for 30 minutes at room temperature. Slides were developed using the Broad Spectrum AEC Histostain®-Plus or Histostain®-Plus kit (Invitrogen), and they were counterstained with Gill's Hematoxylin. TUNEL assay reagent was from Roche. Gelatin zymography. Conditioned media from cultured cells were collected, filtered through […] Nalgene filter, and subjected for gel electrophoresis on 10% SDS-PAGE containing 0.1% gelatin (Invitrogen). MMP2 activity was detected according to the manufacture's protocol. Real-time RT-PCR. Total RNA from cultured cells and xenograft tumors was isolated using RNeasy® Mini Kit (Qiagen, Valencia, Calif.). Gene expression was quantified using One-Step qRT-PCR Kits (Invitrogen) in the Applied Biosystems Real-Time PCR System and normalized to beta-actin control amplification.

SMILES: C[C@H]1c2cccc(O)c2C(=O)C2=C(O)[C@]3(O)C(=O)C(C(N)=O)=C(O)[C@@H](N(C)C)[C@@H]3[C@@H](O)[C@@H]21 [Doxycycline]
- effect on survival of estradiol-treated mice bearing xenograft tumors [1]: not rescued
- cell death (TUNEL staining) in xenograft tumors ([2]; drug in estradiol-treated mice): did not affect
- cell proliferation (Ki-67 immunoreactivity) in xenograft tumors ([2]; drug in estradiol-treated mice): did not affect
- ECM organization in xenograft tumors ([2]; drug plus estradiol-treated animals): disrupted ECM network
- ECM organization in xenograft tumors ([2]; drug plus placebo-treated animals): well maintained
- phospho-p42/44 MAPK in tumors ([2]; estradiol plus drug, immunoblot): lower levels
